The supplement of paper PMC10849652
The list shows a part of the results. Residues, ends and D or L forms follow the SMILES beside them. *: point of attachment. Cbz = O=C(OCc1ccccc1)*

By UniProt entry, the sequences of proteins in these tests, tags left out. Where a name states a change or a piece, a line headed by the entry shows the natural chain unless it says otherwise.
UniProt Q9NVX0: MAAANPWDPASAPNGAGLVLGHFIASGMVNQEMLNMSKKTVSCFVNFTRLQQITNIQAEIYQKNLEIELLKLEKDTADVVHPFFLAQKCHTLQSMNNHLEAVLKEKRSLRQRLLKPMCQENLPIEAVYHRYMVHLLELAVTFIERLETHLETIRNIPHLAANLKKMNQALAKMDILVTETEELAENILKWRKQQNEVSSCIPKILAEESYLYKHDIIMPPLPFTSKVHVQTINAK
UniProt Q9UQL6: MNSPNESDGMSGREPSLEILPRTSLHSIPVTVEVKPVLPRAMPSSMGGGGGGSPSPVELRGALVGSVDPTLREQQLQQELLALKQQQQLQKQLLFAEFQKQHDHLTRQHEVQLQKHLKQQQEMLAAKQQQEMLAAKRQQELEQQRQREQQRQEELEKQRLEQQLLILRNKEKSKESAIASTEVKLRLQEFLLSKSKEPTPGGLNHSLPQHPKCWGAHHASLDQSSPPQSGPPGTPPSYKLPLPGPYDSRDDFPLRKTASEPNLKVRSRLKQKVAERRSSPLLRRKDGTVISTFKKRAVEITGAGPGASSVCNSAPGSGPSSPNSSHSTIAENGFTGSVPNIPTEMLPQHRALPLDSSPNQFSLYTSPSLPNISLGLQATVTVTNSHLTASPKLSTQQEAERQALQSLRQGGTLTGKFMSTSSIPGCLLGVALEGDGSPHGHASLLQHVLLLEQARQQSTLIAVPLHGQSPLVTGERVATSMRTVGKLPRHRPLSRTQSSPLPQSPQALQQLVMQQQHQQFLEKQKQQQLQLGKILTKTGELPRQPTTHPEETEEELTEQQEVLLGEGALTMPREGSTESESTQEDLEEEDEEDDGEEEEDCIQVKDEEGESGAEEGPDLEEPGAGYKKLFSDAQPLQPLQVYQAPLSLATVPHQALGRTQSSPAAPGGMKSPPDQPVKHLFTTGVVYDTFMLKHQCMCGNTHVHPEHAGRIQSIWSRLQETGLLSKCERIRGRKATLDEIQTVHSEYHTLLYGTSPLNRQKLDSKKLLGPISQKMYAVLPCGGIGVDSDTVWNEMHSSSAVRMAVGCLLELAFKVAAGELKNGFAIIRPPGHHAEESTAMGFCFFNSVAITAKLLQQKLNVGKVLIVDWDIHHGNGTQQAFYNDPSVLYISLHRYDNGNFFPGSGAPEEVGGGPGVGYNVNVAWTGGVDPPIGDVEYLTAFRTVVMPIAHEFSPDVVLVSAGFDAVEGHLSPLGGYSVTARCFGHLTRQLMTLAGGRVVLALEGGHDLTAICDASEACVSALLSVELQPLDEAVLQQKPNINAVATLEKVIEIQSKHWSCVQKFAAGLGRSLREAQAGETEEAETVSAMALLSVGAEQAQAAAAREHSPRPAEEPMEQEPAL
UniProt Q68CZ6: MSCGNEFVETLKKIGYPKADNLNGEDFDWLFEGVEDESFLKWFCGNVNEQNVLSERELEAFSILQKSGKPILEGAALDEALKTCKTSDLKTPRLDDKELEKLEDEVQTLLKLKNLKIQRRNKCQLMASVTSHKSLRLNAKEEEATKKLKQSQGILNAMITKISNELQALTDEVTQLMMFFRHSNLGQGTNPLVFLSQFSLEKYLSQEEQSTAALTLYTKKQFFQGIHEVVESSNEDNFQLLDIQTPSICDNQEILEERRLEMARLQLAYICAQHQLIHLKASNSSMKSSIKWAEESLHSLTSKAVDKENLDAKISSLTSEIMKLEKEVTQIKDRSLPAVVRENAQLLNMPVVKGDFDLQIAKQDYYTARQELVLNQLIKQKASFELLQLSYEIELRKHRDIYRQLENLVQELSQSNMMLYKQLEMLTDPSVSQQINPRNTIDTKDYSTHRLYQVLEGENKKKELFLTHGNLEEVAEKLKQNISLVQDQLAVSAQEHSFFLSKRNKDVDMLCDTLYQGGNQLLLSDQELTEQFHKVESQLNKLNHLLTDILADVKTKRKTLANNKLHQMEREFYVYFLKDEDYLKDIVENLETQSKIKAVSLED
UniProt Q93099: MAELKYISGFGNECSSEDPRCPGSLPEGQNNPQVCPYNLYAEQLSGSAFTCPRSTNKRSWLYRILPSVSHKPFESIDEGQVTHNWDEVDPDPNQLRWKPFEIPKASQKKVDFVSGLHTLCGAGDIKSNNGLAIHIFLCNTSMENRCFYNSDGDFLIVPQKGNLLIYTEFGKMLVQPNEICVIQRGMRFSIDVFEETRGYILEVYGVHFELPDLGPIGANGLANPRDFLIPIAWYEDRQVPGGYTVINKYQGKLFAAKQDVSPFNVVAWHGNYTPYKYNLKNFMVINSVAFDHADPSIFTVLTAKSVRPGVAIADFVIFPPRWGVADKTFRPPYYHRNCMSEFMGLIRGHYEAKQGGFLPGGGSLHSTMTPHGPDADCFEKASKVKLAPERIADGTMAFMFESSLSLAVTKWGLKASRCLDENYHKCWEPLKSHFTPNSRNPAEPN
UniProt O15488: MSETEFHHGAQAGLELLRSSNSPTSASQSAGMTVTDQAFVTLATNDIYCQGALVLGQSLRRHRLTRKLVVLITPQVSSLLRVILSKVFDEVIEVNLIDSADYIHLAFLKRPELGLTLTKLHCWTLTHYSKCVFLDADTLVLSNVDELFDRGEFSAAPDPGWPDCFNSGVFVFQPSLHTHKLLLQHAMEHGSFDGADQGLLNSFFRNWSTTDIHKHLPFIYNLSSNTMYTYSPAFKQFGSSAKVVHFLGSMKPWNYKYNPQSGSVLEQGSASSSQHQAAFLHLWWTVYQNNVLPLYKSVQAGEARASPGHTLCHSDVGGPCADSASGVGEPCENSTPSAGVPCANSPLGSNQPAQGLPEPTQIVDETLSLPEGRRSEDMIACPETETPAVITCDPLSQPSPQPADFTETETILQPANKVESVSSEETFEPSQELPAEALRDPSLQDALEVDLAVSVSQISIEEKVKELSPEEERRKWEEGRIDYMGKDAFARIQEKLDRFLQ
UniProt P68871: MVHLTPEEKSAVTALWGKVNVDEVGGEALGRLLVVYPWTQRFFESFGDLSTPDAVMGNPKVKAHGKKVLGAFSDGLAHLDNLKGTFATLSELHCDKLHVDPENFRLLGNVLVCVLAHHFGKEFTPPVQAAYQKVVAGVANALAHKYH
UniProt P42357: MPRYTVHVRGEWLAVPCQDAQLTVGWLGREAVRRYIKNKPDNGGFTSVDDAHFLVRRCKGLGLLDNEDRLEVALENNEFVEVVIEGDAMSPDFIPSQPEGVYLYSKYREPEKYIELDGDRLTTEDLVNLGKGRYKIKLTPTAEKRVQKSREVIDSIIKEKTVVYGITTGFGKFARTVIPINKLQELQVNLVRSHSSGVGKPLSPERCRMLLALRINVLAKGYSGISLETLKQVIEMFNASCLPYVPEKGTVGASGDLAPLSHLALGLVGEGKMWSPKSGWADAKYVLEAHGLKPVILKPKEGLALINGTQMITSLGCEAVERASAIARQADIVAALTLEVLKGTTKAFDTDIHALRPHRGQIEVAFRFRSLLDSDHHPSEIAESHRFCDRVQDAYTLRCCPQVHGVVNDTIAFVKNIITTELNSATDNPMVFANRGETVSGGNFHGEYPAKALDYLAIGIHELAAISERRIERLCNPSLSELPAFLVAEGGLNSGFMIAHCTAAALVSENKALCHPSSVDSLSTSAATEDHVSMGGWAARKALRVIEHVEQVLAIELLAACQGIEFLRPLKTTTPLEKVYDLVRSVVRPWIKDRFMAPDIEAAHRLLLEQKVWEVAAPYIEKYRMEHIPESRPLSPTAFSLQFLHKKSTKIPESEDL
UniProt P51610: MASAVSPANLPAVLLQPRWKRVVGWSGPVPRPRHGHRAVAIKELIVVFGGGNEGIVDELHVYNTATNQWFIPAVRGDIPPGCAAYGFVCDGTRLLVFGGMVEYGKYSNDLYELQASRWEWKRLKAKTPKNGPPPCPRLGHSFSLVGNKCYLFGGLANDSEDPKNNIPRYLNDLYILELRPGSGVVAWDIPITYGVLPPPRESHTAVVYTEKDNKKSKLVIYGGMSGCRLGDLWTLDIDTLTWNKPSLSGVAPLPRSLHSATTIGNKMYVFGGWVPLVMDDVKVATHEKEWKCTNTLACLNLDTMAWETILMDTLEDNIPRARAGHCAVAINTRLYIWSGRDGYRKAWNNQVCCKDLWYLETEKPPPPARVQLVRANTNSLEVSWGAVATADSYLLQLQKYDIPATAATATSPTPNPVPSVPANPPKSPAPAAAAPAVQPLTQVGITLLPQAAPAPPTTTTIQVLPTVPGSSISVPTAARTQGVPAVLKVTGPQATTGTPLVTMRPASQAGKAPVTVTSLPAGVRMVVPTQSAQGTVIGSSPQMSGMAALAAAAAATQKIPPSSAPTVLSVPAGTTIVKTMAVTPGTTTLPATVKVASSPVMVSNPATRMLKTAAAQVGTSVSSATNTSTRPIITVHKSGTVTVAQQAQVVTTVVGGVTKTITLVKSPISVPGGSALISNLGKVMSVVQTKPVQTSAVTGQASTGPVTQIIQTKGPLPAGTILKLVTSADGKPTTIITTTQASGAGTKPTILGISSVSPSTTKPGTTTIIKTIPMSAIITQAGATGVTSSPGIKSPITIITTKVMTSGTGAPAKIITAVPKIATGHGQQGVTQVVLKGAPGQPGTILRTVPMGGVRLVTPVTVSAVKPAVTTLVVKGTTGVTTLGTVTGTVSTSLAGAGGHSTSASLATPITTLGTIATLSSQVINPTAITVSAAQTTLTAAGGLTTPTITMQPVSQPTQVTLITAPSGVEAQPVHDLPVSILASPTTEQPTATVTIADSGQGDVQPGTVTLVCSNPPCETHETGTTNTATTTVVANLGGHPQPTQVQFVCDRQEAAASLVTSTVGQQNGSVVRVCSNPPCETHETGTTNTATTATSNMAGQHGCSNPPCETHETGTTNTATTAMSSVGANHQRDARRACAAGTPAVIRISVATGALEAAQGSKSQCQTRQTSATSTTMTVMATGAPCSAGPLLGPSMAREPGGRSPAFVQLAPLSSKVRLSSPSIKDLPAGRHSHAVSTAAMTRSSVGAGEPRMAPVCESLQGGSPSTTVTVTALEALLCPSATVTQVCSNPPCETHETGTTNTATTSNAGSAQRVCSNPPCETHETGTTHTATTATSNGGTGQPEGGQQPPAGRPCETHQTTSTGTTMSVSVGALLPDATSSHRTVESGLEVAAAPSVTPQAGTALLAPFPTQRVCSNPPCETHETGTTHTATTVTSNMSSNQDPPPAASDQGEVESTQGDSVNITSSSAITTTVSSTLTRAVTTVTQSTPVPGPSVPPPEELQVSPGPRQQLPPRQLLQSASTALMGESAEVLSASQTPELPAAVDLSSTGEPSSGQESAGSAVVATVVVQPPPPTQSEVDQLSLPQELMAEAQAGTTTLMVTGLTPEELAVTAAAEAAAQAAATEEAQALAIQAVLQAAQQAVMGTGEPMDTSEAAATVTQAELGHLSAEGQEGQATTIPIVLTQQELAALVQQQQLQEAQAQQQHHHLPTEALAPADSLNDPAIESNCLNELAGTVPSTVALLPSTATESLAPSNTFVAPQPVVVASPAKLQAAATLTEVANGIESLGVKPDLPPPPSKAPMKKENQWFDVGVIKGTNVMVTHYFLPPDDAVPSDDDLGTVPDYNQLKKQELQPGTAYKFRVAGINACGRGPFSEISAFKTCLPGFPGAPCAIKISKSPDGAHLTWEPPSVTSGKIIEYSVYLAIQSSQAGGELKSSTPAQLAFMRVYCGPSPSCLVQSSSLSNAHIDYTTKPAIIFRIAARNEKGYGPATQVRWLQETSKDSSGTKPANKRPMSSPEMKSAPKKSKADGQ
UniProt P21266: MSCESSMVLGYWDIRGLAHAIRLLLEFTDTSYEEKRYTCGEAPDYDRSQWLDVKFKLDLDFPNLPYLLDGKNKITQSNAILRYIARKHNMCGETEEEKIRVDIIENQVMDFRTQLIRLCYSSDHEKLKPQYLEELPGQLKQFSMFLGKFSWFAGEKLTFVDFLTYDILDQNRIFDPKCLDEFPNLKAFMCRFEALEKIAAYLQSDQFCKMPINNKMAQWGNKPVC
UniProt P08263: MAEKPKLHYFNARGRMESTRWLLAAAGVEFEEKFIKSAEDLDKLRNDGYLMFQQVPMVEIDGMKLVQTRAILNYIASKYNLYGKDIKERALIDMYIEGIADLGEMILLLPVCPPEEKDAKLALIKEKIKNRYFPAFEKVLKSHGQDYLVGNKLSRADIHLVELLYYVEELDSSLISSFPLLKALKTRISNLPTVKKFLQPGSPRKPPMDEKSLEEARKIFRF
UniProt Q15011: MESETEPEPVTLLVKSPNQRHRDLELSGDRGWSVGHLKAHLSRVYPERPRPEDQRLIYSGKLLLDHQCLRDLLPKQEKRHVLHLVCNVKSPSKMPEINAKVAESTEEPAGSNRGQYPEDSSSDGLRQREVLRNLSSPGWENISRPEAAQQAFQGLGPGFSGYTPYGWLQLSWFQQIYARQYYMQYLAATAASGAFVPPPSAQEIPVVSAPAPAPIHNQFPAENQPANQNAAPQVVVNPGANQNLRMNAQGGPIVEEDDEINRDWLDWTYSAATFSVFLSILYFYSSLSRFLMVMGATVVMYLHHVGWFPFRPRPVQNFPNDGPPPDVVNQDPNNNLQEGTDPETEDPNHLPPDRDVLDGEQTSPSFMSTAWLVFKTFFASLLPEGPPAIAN

What was measured:
Test in all cases: log2 fold change, soluble protein after heating vs DMSO (PISA); higher = thermal stabilisation; K562 cells, 10 uM, 30 min; active = over 0.2 and 3.5 SD of the protein, either way, in both replicates (recomputed)
ibrutinib = compound: C=CC(=O)N1CCC[C@@H](n2nc(-c3ccc(Oc4ccccc4)cc3)c3c(N)ncnc32)C1 [ibrutinib]
Summary of the method: (§1)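 Aliquots of K562 cells (2×10^6 cells/mL) treated with 10 μM compound for 30 min were heated for 3 min over 48°C-58°C. After pooling and extraction in PBS with 0.5% NP-40 at 4°C, soluble protein from a 21,000xg, 90 min spin was quantified by TMTpro 16plex LC-MS/MS with channel sums equalised. Thermal stability is expressed against control samples, from duplicates, as a log2 fold change.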

[1] = compound: CC(=O)c1cnc2ccc(-c3cc(Cl)c(O)c(Cl)c3)nc2c1N[C@H]1CC[C@H](CN(C)C)CC1
Summary of the method: as §1

ralimetinib = compound: CC(C)(C)Cn1c(N)nc2ccc(-c3[nH]c(C(C)(C)C)nc3-c3ccc(F)cc3)nc21 [ralimetinib]
Summary of the method: as §1

[2] = compound: CC(C)(O)CC(=O)NCCn1ccc2ncnc(Nc3ccc(Oc4cccc(C(F)(F)F)c4)c(Cl)c3)c21
Summary of the method: as §1

[3] = compound: CC(C)C[C@@H](C=O)NC(=O)[C@H](CC(C)C)NC(=O)[C@H](CC(C)C)NC(=O)OCc1ccccc1
Summary of the method: as §1

[4] = compound: CC1=C(C(CC(=O)N1)C2=CC=C(C=C2)C(F)(F)F)C(=O)NC3=C(C=C4C(=C3)C=NN4)F
Summary of the method: as §1

[5] = compound: CC1=C(C2=C(C=C1)C(=O)C3=CC=CC=C3N2CCCN)C
Summary of the method: as §1

[6] = compound: CC1=C(C=C(C=C1)NC(=O)C2=CC(=CC=C2)C(C)(C)C#N)NC3=CC4=C(C=C3)N=CN(C4=O)C
Summary of the method: as §1

[7] = compound: CC1=C(C=C(C=C1)NC(=O)C2=CC(=CC=C2)N(C)C)NC(=O)C3=CC=C(C=C3)O
Summary of the method: as §1

Nexturastat A = compound: CCCCN(Cc1ccc(C(=O)NO)cc1)C(=O)Nc1ccccc1 [Nexturastat A]
Summary of the method: as §1

vemurafenib = compound: CCCS(=O)(=O)Nc1ccc(F)c(C(=O)c2c[nH]c3ncc(-c4ccc(Cl)cc4)cc23)c1F [vemurafenib]
Summary of the method: as §1

[8] = compound: CCCc1cc(C)[nH]c(=O)c1CNC(=O)c1cc(-c2ccnc(N3CCN(C)CC3)c2)cc2c1cnn2C(C)C
Summary of the method: as §1

barasertib = compound: CCN(CCCOc1ccc2c(Nc3cc(CC(=O)Nc4cccc(F)c4)[nH]n3)ncnc2c1)CCOP(=O)(O)O [barasertib]
Summary of the method: as §1

IRAK-1-4 Inhibitor I = compound: C1COCCN1CCN2C3=CC=CC=C3N=C2NC(=O)C4=CC(=CC=C4)[N+](=O)[O-] [IRAK-1-4 Inhibitor I]
Summary of the method: as §1

pinometostat = compound: CC(C)N(C[C@H]1O[C@@H](n2cnc3c(N)ncnc32)[C@H](O)[C@@H]1O)[C@H]1C[C@@H](CCc2nc3cc(C(C)(C)C)ccc3[nH]2)C1 [pinometostat]
Summary of the method: as §1

[9] = compound: CC1=NC(=CC=C1)C2=C(N=C(N2)C(C)(C)C)C3=CC4=NC=CN=C4C=C3
Summary of the method: as §1

[10] = compound: CC(C)C1=C2N=C(C=C(N2N=C1)NCC3=CC=CC=C3)NCCCCCCN
Summary of the method: as §1

givinostat = compound: CCN(CC)Cc1ccc2cc(COC(=O)Nc3ccc(C(=O)NO)cc3)ccc2c1 [givinostat]
Summary of the method: as §1

[11] = compound: CC1=CC=C(C=C1)SC2=C3C=C(SC3=CN=C2)C(=O)N
Summary of the method: as §1

[12] = compound: CCCS(=O)(=O)Nc1ccc(F)c(C(=O)c2c[nH]c3ncc(Cl)cc23)c1F
Summary of the method: as §1

Measured: log2 fold change

GTPBP4 (UniProt Q9BZE4)
inactive: ibrutinib 0.025 | [1] 0.093 | ralimetinib 0.145 | [2] 0.043 | [3] 0.318 | [4] 0.053 | [5] -0.05 | [6] -0.081 | [7] -0.055 | Nexturastat A 0.308 | vemurafenib 0.026 | [8] 0.016 | barasertib -0.078

HEXIM2 (UniProt Q96MH2)
inactive: IRAK-1-4 Inhibitor I -0.039 | [2] 0.148 | pinometostat -0.092 | [9] -0.114 | Nexturastat A 0.036 | vemurafenib -0.082

HELLS (UniProt Q9NRZ9)
inactive: ibrutinib -0.111 | [2] 0.184 | Nexturastat A 0.199 | barasertib -0.003

HBZ, A0A494C057
inactive: ibrutinib 0.284 | [10] -0.054 | [8] 0.051 | givinostat 0.109 | barasertib 0.013

HAUS2 (UniProt Q9NVX0)
inactive: [1] 0.083 | [10] -0.179 | [11] -0.034 | [12] 0.269 | [8] 0.139 | givinostat 0.118

Random excerpt: 2 entries already listed
HAUS2 (UniProt Q9NVX0)
inactive: [1] 0.083 | [10] -0.179 | [11] -0.034 | [12] 0.269 | [8] 0.139 | givinostat 0.118

GTPBP4 (UniProt Q9BZE4)
inactive: ibrutinib 0.025 | [1] 0.093 | ralimetinib 0.145 | [2] 0.043 | [3] 0.318 | [4] 0.053 | [5] -0.05 | [6] -0.081 | [7] -0.055 | Nexturastat A 0.308 | vemurafenib 0.026 | [8] 0.016 | barasertib -0.078

(further entries)

HDAC5 isoform 3 (UniProt Q9UQL6)
inactive: ibrutinib -0.007 | [1] -0.297 | [2] 0.033 | [10] 0.078 | [4] -0.004 | [5] 0.021 | [6] -0.064 | Nexturastat A 0.131 | [8] -0.161 | givinostat 0.074 | barasertib -0.144

HACE1 (UniProt Q8IYU2)
inactive: [10] -0.178 | [5] 0.089 | givinostat 0.086

HAUS3 (UniProt Q68CZ6)
inactive: IRAK-1-4 Inhibitor I -0.084 | [1] -0.055 | ralimetinib 0.214 | [2] 0.015 | [10] -0.56 | [3] 0.172 | pinometostat 0.272 | [5] -0.007 | [7] -0.012 | [11] 0.049 | [9] -0.121 | Nexturastat A 0.345 | vemurafenib -0.005 | [12] 0.039 | [8] 0.171 | givinostat 0.224

HACD2 (UniProt Q6Y1H2)
inactive: [10] 0.006 | [5] 0.119 | [11] -0.023 | [12] 0.059 | [8] 0.062 | givinostat -0.083

GUF1 (UniProt Q8N442)
inactive: IRAK-1-4 Inhibitor I -0.004 | [1] 0.065 | ralimetinib -0.025 | [10] -0.041 | [3] 0.011 | pinometostat 0.048 | [4] -0.08 | [5] 0.35 | [6] 0.241 | [7] -0.043 | [11] 0.08 | [9] 0.029 | vemurafenib 0.014 | [12] 0.055 | [8] -0.011 | givinostat -0.047

HAUS5 (UniProt O94927)
inactive: IRAK-1-4 Inhibitor I -0.214 | [1] 0.057 | ralimetinib 0.29 | [3] 0.158 | pinometostat 0.36 | [4] -0.032 | [5] -0.04 | [6] 0.088 | [7] -0.002 | [11] 0.043 | [9] -0.197 | [12] -0.062 | [8] 0.341

HGD (UniProt Q93099)
inactive: [2] 0.023 | [6] -0.081 | Nexturastat A 0.05

GYG2 (UniProt O15488)
inactive: [10] -0.174 | [8] -0.139 | givinostat 0.033

GTF2H4 (UniProt Q92759)
inactive: [1] -0.053 | [2] 0.079 | [4] 0.02 | [5] 0.054 | [6] 0.038 | [11] -0.007 | Nexturastat A -0.241 | vemurafenib -0.238 | [12] -0.04 | [8] -0.501

H3-3A (UniProt P84243)
active: [5] 0.656
inactive: ibrutinib -0.016 | [10] -0.07 | [6] -0.205 | [11] 0.078 | vemurafenib 0.149 | [12] 0.102 | [8] 0.118 | givinostat 0.267 | barasertib 0.101

H3C1 (UniProt P68431)
inactive: ralimetinib -0.137 | [3] -0.099 | [7] -0.1

HECTD4 (UniProt Q9Y4D8)
inactive: IRAK-1-4 Inhibitor I 0.087 | [10] -0.007 | pinometostat 0.212 | [9] 0.127 | vemurafenib 0.011 | [8] 0.049 | givinostat 0.106

HABP4 (UniProt Q5JVS0)
inactive: ibrutinib -0.25 | ralimetinib -0.039 | [2] -0.126 | [10] 0.222 | [3] 0.178 | [7] 0.089 | Nexturastat A 0.314 | givinostat -0.013 | barasertib -0.028

HBB (UniProt P68871)
inactive: [1] -0.1 | [8] -0.082

HAL (UniProt P42357)
inactive: [1] -0.404 | [2] 0.363 | [4] -0.753 | [5] 0.954 | [6] -0.109 | [11] 0.01 | Nexturastat A 0.218 | vemurafenib 1.01 | [12] 0.022 | [8] 0.361

HAUS8 (UniProt Q9BT25)
inactive: [1] 0.232 | ralimetinib 0.255 | [3] 0.137 | [4] 0.098 | [7] 0.365 | [11] -0.064 | vemurafenib -0.496 | [12] -0.168 | [8] 0.114

HFM1 (UniProt A2PYH4)
inactive: ibrutinib -0.523 | [11] 0.015 | [12] 0.31 | barasertib -0.27

GZF1 (UniProt Q9H116)
inactive: [1] 0.152 | [6] -0.12 | vemurafenib -0.529

GTF2H1 (UniProt P32780)
inactive: IRAK-1-4 Inhibitor I -0.126 | ralimetinib 0.071 | [10] -0.12 | [3] 0.081 | pinometostat 0.164 | [7] -0.191 | [9] -0.032 | vemurafenib -0.316 | [8] 0.151 | givinostat 0.02

HCFC1 (UniProt P51610)
inactive: IRAK-1-4 Inhibitor I -0.016 | ralimetinib -0.085 | [10] 0.074 | [3] 0.063 | pinometostat 0.031 | [4] 0.003 | [5] 0.022 | [6] -0.041 | [7] 0.081 | [9] -0.088 | vemurafenib -0.066 | [8] 0.006 | givinostat 0.153

GSPT1 isoform 2 (UniProt P15170)
inactive: [4] -0.14

HES1 (UniProt Q14469)
inactive: IRAK-1-4 Inhibitor I -0.262 | [1] -0.116 | [10] -0.019 | pinometostat 0.095 | [5] 0.076 | [9] 0.07 | [8] -0.07 | givinostat 0.03

HGF (UniProt P14210)
inactive: ibrutinib -0.006 | [2] -0.018 | [4] 0.117 | [5] -0.389 | [6] -0.069 | Nexturastat A -0.044 | [8] -0.424 | barasertib 0.049

H6PD (UniProt O95479)
inactive: [1] 0.041 | ralimetinib -0.122 | [2] 0.177 | [10] -0.05 | [3] -0.027 | [4] -0.168 | [5] 0.017 | [6] -0.017 | [7] 0.144 | [11] -0.226 | Nexturastat A 0.105 | vemurafenib -0.144 | [12] -0.228 | [8] -0.037 | givinostat 0

GSTM3 (UniProt P21266)
inactive: ibrutinib 0.066 | [1] -0.059 | [2] 0.046 | [10] 0.021 | [4] -0.048 | [5] 0.03 | [6] 0.054 | [11] 0.004 | Nexturastat A 0.087 | vemurafenib 0.016 | [12] 0.128 | [8] 0.051 | givinostat 0.028 | barasertib 0.054

GTPBP8 (UniProt Q8N3Z3)
inactive: IRAK-1-4 Inhibitor I -0.078 | [10] -0.17 | pinometostat 0.015 | [4] -0.031 | [5] 0.281 | [11] -0.089 | [9] 0.086 | vemurafenib -0.095 | [12] 0.008 | givinostat -0.014

GSTA1 (UniProt P08263)
inactive: ibrutinib 0.1 | [2] -0.139 | [4] -0.113 | [5] 0.081 | [6] -0.123 | Nexturastat A 0.01 | vemurafenib 0.111 | barasertib 0.103

HAUS7 isoform 2 (UniProt Q99871)
inactive: [1] 0.141 | ralimetinib 0.214 | [3] 0.176 | [7] 0.085 | vemurafenib -0.094

HERPUD1 (UniProt Q15011)
inactive: [10] -0.007 | [5] -0.039 | [11] -0.026 | vemurafenib 0.015 | [12] 0.058 | [8] -0.086 | givinostat 0.042

HBD (UniProt E9PEW8)
inactive: [10] 0.127 | [4] -0.069 | [8] -0.063 | givinostat 0.053

HEXD isoform 2 (UniProt Q8WVB3)
inactive: [2] 0.089 | [10] -0.003 | [6] -0.487 | [11] 0.075 | Nexturastat A 0.084 | vemurafenib -0.112 | [12] -0.1 | givinostat 0.003

GTF3C3 (UniProt Q9Y5Q9)
inactive: IRAK-1-4 Inhibitor I -0.144 | ibrutinib -0.122 | [10] 0.006 | pinometostat -0.041 | [4] 0.234 | [5] 0.051 | [11] 0.149 | [9] -0.243 | [12] -0.029 | [8] 0.241 | givinostat -0.034 | barasertib 0.06

HDAC10 (UniProt Q969S8)
inactive: ibrutinib -0.01 | [1] 0.137 | ralimetinib 0.006 | [10] -0.124 | [3] -0.026 | [5] -0.287 | [7] 0.027 | [11] -0.001 | vemurafenib 0.231 | [12] 0.046 | [8] 0.056 | givinostat 0.153 | barasertib -0.117
